Consider 34 substances from patent US7589170B1 (priority 1998, dated 2009).

Data set [1] is described as follows: general procedure: peptide synthesis; chlorotrityl resin (0.91 mmol/g); Fmoc-Ala-Wang resin (0.45 mmol/gr); Boc-Gly-Pam resin (0.5 mmol/g); Boc-Phe-PAM resin; HBTU. As to conditions: TFA salt; for cyclisation yield: cyclisation step.
Data set [2] can be described thus: solid-phase peptide synthesis. As to conditions: whole synthesis, from the starting resin, scale 0.5 mmol, TFA salt.
Data set [3] can be described thus: general procedure: peptide synthesis; Fmoc-Ala-Wang; HBTU. The conditions noted are these: whole synthesis, TFA salt.
The mark [4] stands for this setting: head-to-tail ring, sequence written open.

Several values for one entry are separate records, joined by “and”; a condition that tells them apart may be missing. Equal entries are not always repeated. Non-standard residues stand in square brackets, D forms with d. No end group written: not given here. βAla = NCCC(=O)O; Sar = CNCC(=O)O

In the case of cyclo-[D-Amb-GRG], in data set [1] (whole synthesis), the isolated yield was 5% monomer. For the substance cyclo-[(Hnb)Tyr-Arg-(Hnb)Phe-Ala], the cyclisation yield in data set [1] came to 13%.

With cyclo-[(Hnb)Tyr-Arg-(Hnb)Phe-(D)Ala], the cyclisation yield in data set [1] was 18%. As for cyclo-[D-G-Amb-R-G], the isolated yield in data set [1] (whole synthesis) worked out at 7.6%. For G[Sar][Sar]G, in data set [1], the cyclisation yield is 13%. As for “Cyclo-[N-(6-nitro-2-hydroxybenzyl)-Phe-Leu-Pro-Ala-Ala]”, the results for the cyclisation yield in data set [1] (run 1) and in data set [1] (run 2) were 45% and 44%, respectively. In the case of cyclo(LDVG[βAla]), the isolated yield in data set [1] (whole synthesis) stood at 18%. Turning to cyclo(AFLPA), in data set [1] (late stage modification step, run 1), the step yield is 52% and 28%.

Take Cyclo-(SCH2CH2-Gly-Arg-Pro-Phe-Gly): the cyclisation yield in data set [1] turned out to be 31%. As to Gly-Gly-Gly-Gly, in data set [1] (setting [4]), the cyclisation yield was less than 1%. For the substance “Cyclo-[N-(6-nitro-2-hydroxybenzyl)-Ala-Phe-Leu-Pro-Ala]”, the cyclisation yield in data set [1] worked out at 39%. On to cyclo(NSLAIPFNSLAIPFNSLAIPF), for which, in data set [1], the cyclisation yield was determined as 5%. Besides, in data set [1] (whole synthesis), the isolated yield is listed as 1%.

Consider cyclo-[DG-Act-RG], for which the isolated yield in data set [2] is on record as 11%. Further, in data set [1] (whole synthesis, scale 0.5 mmol), the isolated mass is 27 mg. Turning to G[Sar]G[Sar], the cyclisation yield in data set [1] worked out at 2%. On to H-PFNSLAI-OH, for which the isolated yield in data set [1] (whole synthesis) is reported as 39%. In the case of “Cyclo-[N-(5-nitro-2-hydroxybenzyl)-Ala-Phe-Leu-Pro-Ala]”, the cyclisation yield came out at 50% isolated yield in data set [1] (run 1) and 51% in data set [1] (run 2). Regarding Gly-Sar-Sar-Sar, the cyclisation yield in data set [1] (setting [4]) was roughly 5%. Consider GG[Sar]G, for which the cyclisation yield in data set [1] came to 11%. With [Hnb]Ala-Tyr-[Hnb]Arg-Phe, in data set [3], the isolated yield came to 28%.

As for HSCH2CH2-Gly-Arg-Phe-Gly-OH, the step yield in data set [1] (late stage modification step) amounted to 68%. Take GG[Sar][Sar]: the cyclisation yield in data set [1] amounted to 18%.

As for cyclo(PFNSLAI), the cyclisation yield in data set [1] (run 1) is 48%; in data set [1] (run 2), 67%. The isolated yield in data set [1] (whole synthesis, run 1) came out at 10%; in data set [1] (whole synthesis, run 2) it was 25%.

For cyclo(YRFG), the step yield in data set [1] (late stage modification step) came to 47%. In the case of cyclo(NSLAIPFNSLAIPF), the cyclisation yield in data set [1] is 21%. In addition, the isolated yield was 24.5% in data set [1] (whole synthesis, run 1) and less than 1% in data set [1] (whole synthesis, run 2). “Bis-[cyclo-Gly(CH2CH2S)-Arg-Pro-Phe-Gly]”: the cyclisation yield in data set [1] is 81%. As to cyclo(YRFA), in data set [1] (late stage modification step), the difficulty met entry is “The two cyclic products were subjected to heating and to photolysis: • Product A: Unstable to heat; the product fully decomposed upon heating for 20 h at 70 °C in DMSO”. Take Cyclo-[(Hnb)Tyr-Arg-(Hnb)Phe-Ala]: the cyclisation yield in data set [1] was 60%.

“NH2CH2CH2SSCH2CH2-Gly-Arg-Pro-Phe-Gly-OH”: the isolated yield in data set [1] (whole synthesis) was 47%. On the same count and under the same terms, next, H-NSLAIPF-OH: 78%. As for Cyclo-[(Hnb)Tyr-(Hnb)Arg-Phe-Gly], the cyclisation yield in data set [1] turned out to be 61%. G[Sar]GG: the cyclisation yield in data set [1] was found to be 1%. On the same count and under the same terms, the figure for GGG[Sar] is 8%. On to cyclo(YRF[dA]), for which the step yield in data set [1] (late stage modification step) worked out at 42%. Same read-out and setting: the figure for Cyclo-(Gly(CH2CH2SH)-Arg-Pro-Phe-Gly) is 74%.
